These are yes or no findings as the source states them, for the method shown. For part of these data: Binding seen in cells or lysates may run through a third protein. Some entries that bind do so weakly or less than the wild type.
Tests used:
[1] = target: FGFR1 (protein used in the ForteBio and ELISA assays) (human) (UniProt P11362); assay: ELISA
FGFR1-C176G (human) = FGFR1-C176G (human) (UniProt P11362); assay: co-immunoprecipitation
FGFR1-R248Q (human) = FGFR1-R248Q (human) (UniProt P11362); assay: co-immunoprecipitation
soluble FGFR1 (human) [2] = target: soluble FGFR1 (human) (UniProt P11362); assay: pull-down of purified proteins (Gremlin1-his, FGFR1-Fc), immunoblot
soluble FGFR1 (human) [3] = target: soluble FGFR1 (human) (UniProt P11362); assay: pull-down (Fc-IP) of FGFR1-Fc with Gremlin1 and rising FGF1, immunoblot
soluble FGFR1 (human) [4] = target: soluble FGFR1 (human) (UniProt P11362); assay: pull-down (Fc-IP) of FGFR1-Fc with FGF1 and rising Gremlin1, immunoblot
[5] = target: FGFR1 (protein used in the ForteBio and ELISA assays) (human) (UniProt P11362); assay: ELISA on FGFR1, biotin-labelled ligand in rising concentration
[6] = target: FGFR1 (protein used in the ForteBio and ELISA assays) (human) (UniProt P11362); assay: Fortebio (R), co-immunostaining (S) and pull-down (T, U); FGF1 added as possible competitor
[7] = target: FGFR1 (protein used in the ForteBio and ELISA assays) (human) (UniProt P11362); assay: Fortebio, co-immunofluorescent staining and co-immunoprecipitation; FGF1 added as possible competitor

The chains behind the UniProt entries cited, without tags or fusion partners. Where a name states a change or a piece, a line headed by the entry shows the natural chain unless it says otherwise.
UniProt P11362: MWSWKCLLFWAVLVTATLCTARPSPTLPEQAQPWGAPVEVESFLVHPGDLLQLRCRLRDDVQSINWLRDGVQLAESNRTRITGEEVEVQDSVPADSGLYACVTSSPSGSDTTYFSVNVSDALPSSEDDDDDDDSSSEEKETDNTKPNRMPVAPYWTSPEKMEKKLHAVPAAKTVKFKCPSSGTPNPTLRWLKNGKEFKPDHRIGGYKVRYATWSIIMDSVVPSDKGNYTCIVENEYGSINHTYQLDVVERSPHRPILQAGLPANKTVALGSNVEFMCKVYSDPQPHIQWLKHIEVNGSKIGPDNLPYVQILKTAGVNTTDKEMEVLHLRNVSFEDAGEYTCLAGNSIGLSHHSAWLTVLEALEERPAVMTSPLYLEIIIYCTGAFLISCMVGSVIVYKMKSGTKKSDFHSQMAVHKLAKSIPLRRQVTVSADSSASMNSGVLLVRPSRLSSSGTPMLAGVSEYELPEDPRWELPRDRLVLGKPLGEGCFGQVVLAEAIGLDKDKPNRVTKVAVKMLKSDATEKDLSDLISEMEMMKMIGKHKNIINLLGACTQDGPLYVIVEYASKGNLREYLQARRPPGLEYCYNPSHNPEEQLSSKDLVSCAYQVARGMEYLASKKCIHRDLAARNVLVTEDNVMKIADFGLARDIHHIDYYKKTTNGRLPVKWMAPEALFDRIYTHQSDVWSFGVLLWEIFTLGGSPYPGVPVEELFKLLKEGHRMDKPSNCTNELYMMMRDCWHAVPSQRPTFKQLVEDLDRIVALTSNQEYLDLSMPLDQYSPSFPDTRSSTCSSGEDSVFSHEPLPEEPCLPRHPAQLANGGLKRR

- binding [1]: binds
- binding (FGFR1-C176G (human)): binds
- binding (FGFR1-R248Q (human)): binds
- binding (soluble FGFR1 (human) [2]): binds
- binding (soluble FGFR1 (human) [3]): binds
- binding (soluble FGFR1 (human) [4]): binds
- binding [5]: binds
- binding [6]: binds
- binding [7]: binds
B1: Gremlin1 (human gremlin 1, hGREM1) (ligand)
chain: KKKGSQGAIPPPDKAQHNDSEQTQSPQQPGSRNRGRGQGRGTAMPGEEVLESSQEALHVTERKYLKRDWCKTQPLKQTIHEEGCNSRTIINRFCYGQCNSFYIPRHIRKEEGSFQSCSFCKPKKFTTMMVTLNCPELQPPTKKKRVTRVKQCRCISIDLD
modifications: biotin label in the ForteBio assay (site not stated)

From patent publication US20240190950A1, “METHOD OF TREATING DISEASES USING GREMLIN1 ANTAGONISTS” (SHANGHAI JIAO TONG UNIVERSITY, priority 2021, published 2024)
